Assay results reported in PubChem BioAssay AID588499 (NMMLSC, 2011).
In all, about 360,000 compounds went through this assay and about 610 (0.17%) were called active. This list was built around the results that the source calls inconclusive (neither active nor inactive); the mix of calls is not that of the screen. No stated cut-off is given here; in the data, active means inhibition above about 30%; inconclusive means no clear call, values can overlap the other calls; inactive means below that.

System: Botulinum neurotoxin type A light chain protease (Clostridium botulinum A str. ATCC 3502)
Experiment: blockers of BoNT/A LC substrate cleavage – biochemical, flow cytometry, MLPCN library, primary screen (AID 588499); further: plate controls were buffer without enzyme for full effect and enzyme alone for no effect
Details: multiplex microsphere protease substrate cleavage, at 10 µM, stronger effect = higher value

Question: For `CCOC(=O)C1=C(C)NC2=C(C(=O)C(C(=O)OC)C(C)C2)C1c1ccc(OC)c(O)c1` (configuration not stated), which inhibition is on record?
Answer: inconclusive: -1.4%

Question: Which inhibition does the source give for `Cc1cc(NC(=O)CC2(CC(=O)O)CCCC2)n(C)n1` here?
Answer: inconclusive: -4.6%

Question: For `COc1ccc(C(=O)Nc2nc(-c3ccc(S(=O)(=O)N4CCOCC4)cc3)cs2)cc1`, which inhibition is on record?
Answer: inconclusive: -0.2%

Question: Which inhibition does the source give for `Cc1ccc(NC(=O)CSCC(=O)Nc2nnc(C)s2)cc1` here?
Answer: inconclusive: 1.9%

Question: `COc1cc(-c2noc(CCCC(=O)NC3CCCCC3)n2)cc(OC)c1OC` was tested. Which inhibition did it give?
Answer: inconclusive: -5.3%

Question: How did the inhibition turn out when `Cc1cc(N/N=C/c2ccc(O)cc2O)c2ccccc2n1` was run?
Answer: inconclusive: -6%

Question: Which inhibition does the source give for `CC(C)OCCCNC(=O)c1ccc(NS(C)(=O)=O)cc1` here?
Answer: inconclusive: -1.3%

Question: For `Cn1c(=O)n(C)c2cc(NC(=O)CCc3ccccc3)c(Br)cc21`, which inhibition is on record?
Answer: inconclusive: 0.3%

Question: How did the inhibition turn out when `CCn1c(COc2cccc(OC)c2)nnc1SCC(=O)Nc1ccccc1C(=O)OC` was run?
Answer: inconclusive: 3.2%

Question: `CC(=O)c1cccc(OCC(O)CN2CC=C(c3ccccc3)CC2)c1` (configuration not stated) was tested. Which inhibition did it give?
Answer: inconclusive: 2.8%

Question: With `COC(=O)c1c(NC(=O)c2nc3ccccc3s2)sc2c1CC(C)(C)NC2(C)C` as the compound, how does the inhibition read?
Answer: inactive: -0.9%

Question: How did the inhibition turn out when `CC(C)NS(=O)(=O)c1ccc(NC(=O)NC2CCCCC2)cc1` was run?
Answer: inactive: 0.1%

Question: For `O=C1CC(C(=O)N2CCN(c3ccccc3O)CC2)CN1Cc1ccccc1` (configuration not stated), which inhibition is on record?
Answer: inactive: 1.3%

Question: How did the inhibition turn out when `CCOc1ccc(NC(=O)c2ccc(F)c(S(=O)(=O)N3CCN(c4ccccn4)CC3)c2)cc1` was run?
Answer: inconclusive: 1%

Question: With `Cn1c(=O)c2cc(NC(=O)NCc3ccc(F)cc3)ccc2n1C/C=C/c1ccccc1` as the compound, how does the inhibition read?
Answer: inactive: 0%

Question: Which inhibition does the source give for `CCOc1ccc(OCCNC2CCCC2)cc1` here?
Answer: inconclusive: -0.7%

Question: Which inhibition does the source give for `O=C(CSc1ccccc1C(=O)O)Nc1cccc(C(=O)O)c1` here?
Answer: inconclusive: 2.1%

Question: `COC(=O)Nc1ccc(S(=O)(=O)N2CCC(C(=O)N(C)C3CCCCC3)CC2)cc1` was tested. Which inhibition did it give?
Answer: inactive: 0.2%

Question: `COc1ccc(-c2noc(CCC(=O)NC3CCCC3)n2)cc1` was tested. Which inhibition did it give?
Answer: inconclusive: 17.2%

Question: For `CN=C1SC(CC(=O)Nc2cc(Cl)ccc2Cl)C(=O)N1C` (configuration not stated), which inhibition is on record?
Answer: inactive: 2.5%

Question: With `O=C(CCN1C(=O)COc2ccccc21)NCCCN1CCN(c2ccc(F)cc2)CC1` as the compound, how does the inhibition read?
Answer: inconclusive: -2.6%

Question: `Cc1ccccc1C(=O)Oc1ccc(Br)cc1C(=S)N1CCCC1` was tested. Which inhibition did it give?
Answer: inconclusive: 1.3%

Question: Which inhibition does the source give for `C(=N\N1CCN(c2ccccn2)CC1)/c1ccccn1` here?
Answer: inconclusive: 6%

Question: For `N#Cc1c(SCc2c(Cl)cccc2Cl)nc(N)[nH]c1=S`, which inhibition is on record?
Answer: inactive: 0.4%

Question: How did the inhibition turn out when `CCn1c(SCc2cccc(C)c2)nnc1-c1ccccc1` was run?
Answer: inconclusive: -2.2%

Question: Which inhibition does the source give for `COc1ccccc1C(=O)COC(=O)CCNS(=O)(=O)c1ccc(C)c(C)c1` here?
Answer: inconclusive: -6%

Question: Which inhibition does the source give for `O=C(Oc1coc(CSc2nnc(NC(=O)C3CC3)s2)cc1=O)c1c(F)cccc1F` here?
Answer: active: 48.5%

Question: `CNc1nc(-c2c(C)n(C)c3ccc(OC)cc23)cs1` was tested. Which inhibition did it give?
Answer: inconclusive: 15.8%

Question: Which inhibition does the source give for `COc1ccc(C(=O)COC(=O)C(CC(C)C)N2C(=O)c3ccccc3C2=O)cc1` (configuration not stated) here?
Answer: inconclusive: 6.3%

Question: How did the inhibition turn out when `Cc1c(Br)ccc(NC(=O)CCN2C(=O)C3C4CCC(C4)C3C2=O)c1C` (configuration not stated) was run?
Answer: inconclusive: -1.3%

Question: `Cc1ccc(-c2csc3ncnc(SCC(=O)c4ccc5c(c4)OCCO5)c23)cc1` was tested. Which inhibition did it give?
Answer: inconclusive: 9.6%

Question: With `O=C(CCNS(=O)(=O)c1cccc2nsnc12)N1CC(=O)N(CCc2ccccc2)C(=O)C1` as the compound, how does the inhibition read?
Answer: inconclusive: -5.4%

Question: For `CC1(C)CC(CCC(=O)Nc2ccc(S(N)(=O)=O)cc2)C(=O)O1` (configuration not stated), which inhibition is on record?
Answer: inconclusive: -1.5%

Question: How did the inhibition turn out when `COc1ccc(OC)c(S(=O)(=O)N2CCN(Cc3ccccc3)CC2)c1` was run?
Answer: inconclusive: 5.6%

Question: `CCC(C)NC(=O)N1c2ccccc2Sc2ccccc21` (configuration not stated) was tested. Which inhibition did it give?
Answer: inconclusive: -44.5%

Question: For `COCCNC(=O)CSCc1c(F)cccc1Cl`, which inhibition is on record?
Answer: inconclusive: 2.6%

Question: `COc1cccc(-c2ccc(=O)n(CC(=O)NCCN3CCOCC3)n2)c1` was tested. Which inhibition did it give?
Answer: inactive: -4.8%

Question: `COc1cc(CNn2nnnc2N)cc(Br)c1OCc1c(Cl)cccc1Cl` was tested. Which inhibition did it give?
Answer: inconclusive: -2.8%

Question: With `c1ccc(CN2CCC3(CC2)Nc2ccccc2S3)cc1` as the compound, how does the inhibition read?
Answer: inconclusive: -59%

Question: `O=C(COC(=O)C1(c2ccccc2F)CCCC1)NC1CCS(=O)(=O)C1` (configuration not stated) was tested. Which inhibition did it give?
Answer: inactive: 0.6%

Question: How did the inhibition turn out when `C=CCn1c(SCC(N)=O)nnc1-c1cc(Br)ccc1O` was run?
Answer: inconclusive: 1.8%

Question: For `COc1ccc(/C=C/C(=O)N(CC(C)C)CC(C)C)cc1Br`, which inhibition is on record?
Answer: inconclusive: 3.7%

Question: Which inhibition does the source give for `COC(=O)c1ccc2c(c1)N(C)CCS2` here?
Answer: inactive: 0.6%

Question: For `O=c1cc[nH]c2ccc(OC(F)(F)F)cc12`, which inhibition is on record?
Answer: inconclusive: 8.4%

Question: Which inhibition does the source give for `COc1cccc(CCNC(=O)CCc2nnc(-c3ccc4c(c3)OCO4)o2)c1` here?
Answer: inactive: -1.2%

Question: How did the inhibition turn out when `O=C(Nc1ccc2nc3ccccc3nc2c1)c1ccccc1` was run?
Answer: active: 63.2%

Question: `N#CC(c1cccc(Cl)c1)c1ncc(C(F)(F)F)cc1Cl` (configuration not stated) was tested. Which inhibition did it give?
Answer: inconclusive: -9.3%

Question: How did the inhibition turn out when `CCCn1c(SCC(=O)C(C)(C)C)nc2ccccc21` was run?
Answer: inactive: -0.3%

Question: For `Cc1ccc(-c2csc(NC(=O)C[n+]3cc(-c4ccc(C)cc4)n4c3CCC4)n2)cc1`, which inhibition is on record?
Answer: inconclusive: -53.1%

Question: Which inhibition does the source give for `COc1ccccc1CNc1nc2ccccc2n1CCN1CCCCC1` here?
Answer: inactive: 0.9%

Question: How did the inhibition turn out when `Nc1nonc1NN=C1CCCCC1` was run?
Answer: inconclusive: 8.7%

Question: With `Cc1cccc(C(=O)Nc2cc(OCc3cccc(F)c3)c(Cl)cc2Cl)c1` as the compound, how does the inhibition read?
Answer: inconclusive: 1.7%

Question: Which inhibition does the source give for `N=c1cc(C2(O)CCCCC2)n2c(nc3ccccc32)s1` here?
Answer: inconclusive: -1%

Question: How did the inhibition turn out when `CCOC(=O)C1=C(C)NC(=O)C(C#N)C1c1ccco1` (configuration not stated) was run?
Answer: inconclusive: -12.1%

Question: For `NC(=O)CSc1nnc(CSc2ncccn2)n1-c1ccccc1`, which inhibition is on record?
Answer: inactive: -0.4%

Question: Which inhibition does the source give for `CCOc1ccc(N/C(=N/c2nc(C)cc(C)n2)NC(=O)CC)cc1` here?
Answer: inconclusive: 8.7%

Question: For `CC(C)CN(Cc1cc2ccccc2[nH]c1=O)C(=O)c1cccnc1`, which inhibition is on record?
Answer: inconclusive: -7.8%

Question: With `COc1ccccc1OCc1ccc(C(=O)Nc2cc(OC)c(OC)c(OC)c2)o1` as the compound, how does the inhibition read?
Answer: inconclusive: 5.4%

Question: How did the inhibition turn out when `COc1ccc(C(C)(NC(C)=O)c2nc(-c3ccccc3OC)cs2)cc1` (configuration not stated) was run?
Answer: inactive: -0.2%

Question: Which inhibition does the source give for `O=c1[nH][nH]c2nc(C(F)(F)F)cc(C(F)(F)F)c12` here?
Answer: inconclusive: -0.3%

Question: How did the inhibition turn out when `Cn1c(SCCCC(=O)c2ccccc2)nnc1-c1ccncc1` was run?
Answer: inconclusive: 2.5%

Question: For `C/C(=N\NC(=O)c1cnccn1)c1ccc([N+](=O)[O-])cc1`, which inhibition is on record?
Answer: inconclusive: -29.2%

Question: `OC(COCc1ccccc1)Cn1cnc2ccccc21` (configuration not stated) was tested. Which inhibition did it give?
Answer: inconclusive: -0.1%

Question: Which inhibition does the source give for `COc1cccc(Cn2c(=O)c3[nH]cnc3n(-c3ccccc3C)c2=O)c1` here?
Answer: inconclusive: 5.2%

Question: Which inhibition does the source give for `O=C(CCc1ccccc1)NNC(=O)c1ccc(NC(=O)c2ccccc2)cc1` here?
Answer: inactive: -1.7%

Question: `CCOC(=O)N1CCC(NC(=O)CN(C)S(=O)(=O)c2cc3c(cc2Cl)NC(=O)CO3)CC1` was tested. Which inhibition did it give?
Answer: inconclusive: 1.3%

Question: `Cc1nnc(N/N=C/c2cc(C)n(-c3ccc(F)cc3)c2C)n1N` was tested. Which inhibition did it give?
Answer: inactive: -0.1%

Question: With `O=C(Nc1ccccc1Cl)OC1CN2CCC1CC2` (configuration not stated) as the compound, how does the inhibition read?
Answer: inconclusive: 5.6%

Question: How did the inhibition turn out when `CN(C)C(=O)c1cc2c(c(-c3cccc(-c4ccccc4F)c3)n1)[C@@H](CCO)N(S(C)(=O)=O)C2` was run?
Answer: inactive: 0.4%

Question: `Cc1n[nH]c(C)c1S(=O)(=O)N(C)Cc1ccco1` was tested. Which inhibition did it give?
Answer: inactive: 1.8%

Question: How did the inhibition turn out when `CC(C)CNC(=O)COC(=O)c1c2c(nc3ccccc13)/C(=C/c1cccs1)CC2` was run?
Answer: active: 31.1%

Question: For `Cc1ccc(-c2ccc(CCC(=O)O)n2CC2CCCO2)cc1` (configuration not stated), which inhibition is on record?
Answer: inconclusive: -7.9%

Question: For `COCCCNC(=S)N(CCO)Cc1cc2cc3c(cc2[nH]c1=O)OCO3`, which inhibition is on record?
Answer: inactive: -3.4%

Question: How did the inhibition turn out when `COc1ccc(NC(=O)C2Cc3cc(S(=O)(=O)N4CCCCC4)ccc3N2C(C)=O)cc1Cl` (configuration not stated) was run?
Answer: inconclusive: 0.1%

Question: How did the inhibition turn out when `O=C(C[n+]1cc(Br)cc2ccccc21)c1ccc(Cl)cc1` was run?
Answer: active: 104%

Question: How did the inhibition turn out when `C=CCOC(=O)c1sc(NC(=O)c2ccco2)nc1C` was run?
Answer: inactive: 2.9%

Question: For `Cc1ccc(C(C(=O)NC(C)(C)C)N(C(=O)c2csnn2)c2ccccc2F)o1` (configuration not stated), which inhibition is on record?
Answer: inconclusive: -2.1%

Question: How did the inhibition turn out when `CC1(C)C/C(=N/Nc2ccc([N+](=O)[O-])cc2[N+](=O)[O-])C(C)(C)O1` was run?
Answer: inconclusive: 13.8%

Question: `CCN(C(=O)c1cccc(S(=O)(=O)N2CCc3ccccc32)c1)C1CCS(=O)(=O)C1` (configuration not stated) was tested. Which inhibition did it give?
Answer: inactive: -0.3%

Question: `CCN(CC)S(=O)(=O)c1cc(NC(=O)Cc2ccsc2)ccc1C` was tested. Which inhibition did it give?
Answer: inactive: -0.9%

Question: For `O=C(NCc1ccco1)c1sc2cccc(F)c2c1Cl`, which inhibition is on record?
Answer: inconclusive: 4.4%

Question: `O=C(Oc1ccc(-c2ccccc2)cc1)N1CCOCC1` was tested. Which inhibition did it give?
Answer: inconclusive: -2.1%

Question: Which inhibition does the source give for `O=C(Cn1nc2ccccc2n1)N/N=C/c1cc([N+](=O)[O-])ccc1O` here?
Answer: inactive: -2%

Question: For `Cc1[nH]c2ccccc2c1C(=O)C(=O)NCC1CCCO1` (configuration not stated), which inhibition is on record?
Answer: inactive: 0.9%

Question: How did the inhibition turn out when `COc1cc(/C=C2/SC(=S)N(CC(=O)NC(C)(C)C)C2=O)cc(OC)c1OC` was run?
Answer: active: 31.3%

Question: With `COc1cc(NC(=O)Cn2c(-c3cncs3)nc3ccccc32)cc(OC)c1OC` as the compound, how does the inhibition read?
Answer: inconclusive: 1.4%

Question: For `O=C(CNC(=O)c1cccs1)c1ccc(F)cc1`, which inhibition is on record?
Answer: inconclusive: 0.8%

Question: `CCOC(=O)c1cc(C(=O)OCC)c(=O)[nH]c1N1CCCCC1` was tested. Which inhibition did it give?
Answer: inactive: -0.7%

Question: `S=c1[nH]nc(COc2ccccc2)n1/N=C/c1c(Cl)cccc1Cl` was tested. Which inhibition did it give?
Answer: inactive: -1.6%

Question: For `O=CN(Cc1ccco1)C1(C(=O)NC2CCCCC2)CCCCC1`, which inhibition is on record?
Answer: inconclusive: 0.4%

Question: Which inhibition does the source give for `CCOC(=O)C1CCN(C(=O)Nc2ccc(OC)c(OC)c2)CC1` here?
Answer: inconclusive: 7.3%

Question: For `Cc1onc(-c2ccccc2)c1CNS(=O)(=O)c1ccccc1`, which inhibition is on record?
Answer: inconclusive: -6.6%
